# Test results published in paper PMC12474859.
# By UniProt entry, the sequences of proteins in these tests, tags left out.
# UniProt P78527: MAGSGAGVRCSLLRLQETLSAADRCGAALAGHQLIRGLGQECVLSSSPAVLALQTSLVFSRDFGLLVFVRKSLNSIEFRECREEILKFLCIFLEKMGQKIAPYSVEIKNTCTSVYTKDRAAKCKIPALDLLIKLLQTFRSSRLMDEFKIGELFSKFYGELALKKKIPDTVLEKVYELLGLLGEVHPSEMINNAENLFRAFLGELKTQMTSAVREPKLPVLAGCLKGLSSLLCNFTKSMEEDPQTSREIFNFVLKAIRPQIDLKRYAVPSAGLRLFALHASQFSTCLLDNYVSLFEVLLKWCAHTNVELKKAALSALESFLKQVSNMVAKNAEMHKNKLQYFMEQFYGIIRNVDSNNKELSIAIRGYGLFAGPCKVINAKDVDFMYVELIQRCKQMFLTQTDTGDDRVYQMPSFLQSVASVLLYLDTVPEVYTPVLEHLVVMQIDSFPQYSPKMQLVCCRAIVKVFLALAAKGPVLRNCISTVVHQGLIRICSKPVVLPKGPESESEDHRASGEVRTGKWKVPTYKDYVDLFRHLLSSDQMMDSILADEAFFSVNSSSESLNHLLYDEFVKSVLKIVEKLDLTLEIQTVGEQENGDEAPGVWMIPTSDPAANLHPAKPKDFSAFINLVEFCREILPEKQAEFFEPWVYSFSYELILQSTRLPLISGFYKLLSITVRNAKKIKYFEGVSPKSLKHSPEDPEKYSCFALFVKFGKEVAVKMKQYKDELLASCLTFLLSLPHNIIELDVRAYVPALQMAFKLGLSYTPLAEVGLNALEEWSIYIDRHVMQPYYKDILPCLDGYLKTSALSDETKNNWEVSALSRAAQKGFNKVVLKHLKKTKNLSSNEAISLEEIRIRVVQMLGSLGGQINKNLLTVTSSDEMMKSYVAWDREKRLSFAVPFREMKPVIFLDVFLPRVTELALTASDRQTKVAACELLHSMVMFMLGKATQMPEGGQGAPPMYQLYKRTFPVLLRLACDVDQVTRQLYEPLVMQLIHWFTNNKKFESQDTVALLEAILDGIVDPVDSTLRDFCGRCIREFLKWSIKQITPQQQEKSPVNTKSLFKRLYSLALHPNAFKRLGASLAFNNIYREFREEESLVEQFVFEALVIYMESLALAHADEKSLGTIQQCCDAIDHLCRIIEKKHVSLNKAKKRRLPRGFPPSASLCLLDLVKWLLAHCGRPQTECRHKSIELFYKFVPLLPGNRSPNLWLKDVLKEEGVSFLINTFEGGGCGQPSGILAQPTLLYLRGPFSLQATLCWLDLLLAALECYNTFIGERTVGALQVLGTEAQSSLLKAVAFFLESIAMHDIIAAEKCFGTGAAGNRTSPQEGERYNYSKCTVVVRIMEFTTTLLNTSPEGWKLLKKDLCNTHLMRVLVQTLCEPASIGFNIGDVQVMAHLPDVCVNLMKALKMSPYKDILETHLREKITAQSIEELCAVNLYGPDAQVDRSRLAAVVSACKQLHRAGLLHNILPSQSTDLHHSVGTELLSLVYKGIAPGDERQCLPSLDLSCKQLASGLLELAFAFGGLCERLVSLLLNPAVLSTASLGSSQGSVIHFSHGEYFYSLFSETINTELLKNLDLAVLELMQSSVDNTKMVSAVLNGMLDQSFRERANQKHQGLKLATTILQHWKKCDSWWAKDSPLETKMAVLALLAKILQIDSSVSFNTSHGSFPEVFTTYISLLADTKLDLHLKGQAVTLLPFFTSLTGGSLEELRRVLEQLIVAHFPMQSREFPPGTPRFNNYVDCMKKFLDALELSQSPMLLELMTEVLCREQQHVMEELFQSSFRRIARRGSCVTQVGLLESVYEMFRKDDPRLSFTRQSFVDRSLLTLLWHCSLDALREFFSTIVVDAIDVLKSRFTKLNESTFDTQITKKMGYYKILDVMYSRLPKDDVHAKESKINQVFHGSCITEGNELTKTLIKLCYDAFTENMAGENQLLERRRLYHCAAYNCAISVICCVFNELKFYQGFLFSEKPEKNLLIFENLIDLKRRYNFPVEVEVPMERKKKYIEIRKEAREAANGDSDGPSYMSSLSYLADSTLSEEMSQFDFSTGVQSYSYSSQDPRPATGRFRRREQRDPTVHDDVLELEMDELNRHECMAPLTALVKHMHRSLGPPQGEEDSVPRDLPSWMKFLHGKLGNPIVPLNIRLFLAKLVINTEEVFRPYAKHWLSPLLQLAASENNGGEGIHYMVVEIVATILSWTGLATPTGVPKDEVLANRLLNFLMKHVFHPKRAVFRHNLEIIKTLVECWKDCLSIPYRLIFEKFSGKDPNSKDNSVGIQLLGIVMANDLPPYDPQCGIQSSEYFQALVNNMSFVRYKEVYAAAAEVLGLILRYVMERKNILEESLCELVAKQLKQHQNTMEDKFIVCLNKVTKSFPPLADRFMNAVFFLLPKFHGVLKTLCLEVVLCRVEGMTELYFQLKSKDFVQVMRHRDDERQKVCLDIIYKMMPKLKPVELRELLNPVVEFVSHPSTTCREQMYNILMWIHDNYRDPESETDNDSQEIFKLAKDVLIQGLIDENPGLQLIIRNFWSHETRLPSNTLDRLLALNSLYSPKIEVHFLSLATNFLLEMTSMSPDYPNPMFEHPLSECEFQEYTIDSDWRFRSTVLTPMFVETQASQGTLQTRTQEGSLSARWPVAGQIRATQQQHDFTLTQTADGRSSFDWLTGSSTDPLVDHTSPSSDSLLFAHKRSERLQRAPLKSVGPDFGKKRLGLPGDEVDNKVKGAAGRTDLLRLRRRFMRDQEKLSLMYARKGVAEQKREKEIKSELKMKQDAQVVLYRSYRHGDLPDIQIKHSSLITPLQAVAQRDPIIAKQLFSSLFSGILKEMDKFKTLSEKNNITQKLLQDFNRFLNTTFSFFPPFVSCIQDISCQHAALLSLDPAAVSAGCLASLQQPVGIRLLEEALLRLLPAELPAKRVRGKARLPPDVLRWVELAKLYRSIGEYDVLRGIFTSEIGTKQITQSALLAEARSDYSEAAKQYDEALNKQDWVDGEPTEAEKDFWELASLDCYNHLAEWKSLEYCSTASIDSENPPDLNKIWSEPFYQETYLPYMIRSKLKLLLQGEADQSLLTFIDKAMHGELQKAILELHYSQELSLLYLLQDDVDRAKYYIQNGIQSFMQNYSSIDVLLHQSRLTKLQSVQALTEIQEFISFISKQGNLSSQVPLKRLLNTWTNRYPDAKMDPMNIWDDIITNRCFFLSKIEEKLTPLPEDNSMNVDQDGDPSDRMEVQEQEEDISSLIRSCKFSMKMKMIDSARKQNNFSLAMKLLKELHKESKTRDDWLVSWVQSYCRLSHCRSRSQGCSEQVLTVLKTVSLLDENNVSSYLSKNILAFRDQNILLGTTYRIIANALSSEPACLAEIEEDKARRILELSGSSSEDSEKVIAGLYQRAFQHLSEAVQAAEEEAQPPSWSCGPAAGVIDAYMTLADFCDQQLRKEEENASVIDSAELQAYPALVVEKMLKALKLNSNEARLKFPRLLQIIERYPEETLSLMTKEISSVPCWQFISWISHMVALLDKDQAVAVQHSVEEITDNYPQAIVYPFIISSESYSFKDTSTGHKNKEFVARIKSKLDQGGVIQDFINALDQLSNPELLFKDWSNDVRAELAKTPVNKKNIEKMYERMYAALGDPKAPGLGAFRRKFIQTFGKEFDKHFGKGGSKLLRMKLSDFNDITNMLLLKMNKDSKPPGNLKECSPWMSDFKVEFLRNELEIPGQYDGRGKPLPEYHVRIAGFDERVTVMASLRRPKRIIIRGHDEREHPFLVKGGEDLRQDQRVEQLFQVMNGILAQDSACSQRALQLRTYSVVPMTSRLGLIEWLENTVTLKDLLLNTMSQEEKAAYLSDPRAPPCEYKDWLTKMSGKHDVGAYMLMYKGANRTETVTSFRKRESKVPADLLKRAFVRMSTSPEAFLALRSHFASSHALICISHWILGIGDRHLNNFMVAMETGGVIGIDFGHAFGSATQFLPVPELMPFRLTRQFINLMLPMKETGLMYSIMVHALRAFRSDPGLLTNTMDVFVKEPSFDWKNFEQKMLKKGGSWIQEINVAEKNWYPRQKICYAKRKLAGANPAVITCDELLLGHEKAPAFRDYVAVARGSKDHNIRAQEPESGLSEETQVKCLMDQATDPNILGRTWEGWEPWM
# UniProt P09874: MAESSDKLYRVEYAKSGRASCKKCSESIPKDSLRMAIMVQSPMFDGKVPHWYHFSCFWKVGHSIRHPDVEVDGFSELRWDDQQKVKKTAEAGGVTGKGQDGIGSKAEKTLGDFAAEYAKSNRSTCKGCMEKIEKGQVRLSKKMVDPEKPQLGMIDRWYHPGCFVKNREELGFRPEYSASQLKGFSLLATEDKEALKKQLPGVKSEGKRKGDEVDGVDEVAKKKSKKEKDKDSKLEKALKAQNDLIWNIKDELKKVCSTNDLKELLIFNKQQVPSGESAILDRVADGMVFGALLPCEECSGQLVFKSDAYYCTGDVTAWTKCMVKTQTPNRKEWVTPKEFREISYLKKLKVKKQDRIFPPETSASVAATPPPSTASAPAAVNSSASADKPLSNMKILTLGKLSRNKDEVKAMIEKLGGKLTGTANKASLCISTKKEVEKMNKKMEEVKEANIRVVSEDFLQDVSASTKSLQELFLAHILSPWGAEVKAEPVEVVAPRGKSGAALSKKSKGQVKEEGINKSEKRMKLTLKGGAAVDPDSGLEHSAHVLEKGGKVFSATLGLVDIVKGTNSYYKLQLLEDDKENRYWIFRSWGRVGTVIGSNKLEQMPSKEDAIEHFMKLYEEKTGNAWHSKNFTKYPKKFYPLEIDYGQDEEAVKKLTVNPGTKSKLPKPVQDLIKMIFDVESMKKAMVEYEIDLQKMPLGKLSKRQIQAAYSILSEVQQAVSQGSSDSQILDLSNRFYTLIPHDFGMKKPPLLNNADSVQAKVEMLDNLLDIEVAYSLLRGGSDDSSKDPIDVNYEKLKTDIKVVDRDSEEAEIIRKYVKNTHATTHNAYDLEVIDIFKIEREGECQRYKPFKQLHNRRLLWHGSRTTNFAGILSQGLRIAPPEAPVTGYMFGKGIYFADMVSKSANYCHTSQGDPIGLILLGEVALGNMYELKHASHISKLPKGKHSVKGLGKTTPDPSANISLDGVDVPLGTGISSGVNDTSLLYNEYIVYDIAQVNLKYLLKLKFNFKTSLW
# UniProt P12004: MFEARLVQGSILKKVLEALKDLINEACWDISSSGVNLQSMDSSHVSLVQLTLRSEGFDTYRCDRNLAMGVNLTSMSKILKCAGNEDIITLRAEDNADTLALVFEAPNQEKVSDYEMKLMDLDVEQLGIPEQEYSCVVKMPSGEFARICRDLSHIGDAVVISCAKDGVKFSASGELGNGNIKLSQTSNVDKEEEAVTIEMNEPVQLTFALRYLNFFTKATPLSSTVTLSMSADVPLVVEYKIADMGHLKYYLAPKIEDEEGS
# UniProt P54725: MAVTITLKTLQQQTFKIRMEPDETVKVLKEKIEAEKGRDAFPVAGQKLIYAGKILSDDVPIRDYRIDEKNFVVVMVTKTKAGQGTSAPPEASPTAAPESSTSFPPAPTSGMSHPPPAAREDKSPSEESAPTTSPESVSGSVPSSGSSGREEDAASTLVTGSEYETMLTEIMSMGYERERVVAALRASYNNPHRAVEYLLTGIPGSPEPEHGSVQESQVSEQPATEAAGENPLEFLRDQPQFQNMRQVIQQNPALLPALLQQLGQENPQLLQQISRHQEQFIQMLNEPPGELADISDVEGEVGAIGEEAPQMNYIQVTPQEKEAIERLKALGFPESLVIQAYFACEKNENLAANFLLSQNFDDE
# UniProt P54727: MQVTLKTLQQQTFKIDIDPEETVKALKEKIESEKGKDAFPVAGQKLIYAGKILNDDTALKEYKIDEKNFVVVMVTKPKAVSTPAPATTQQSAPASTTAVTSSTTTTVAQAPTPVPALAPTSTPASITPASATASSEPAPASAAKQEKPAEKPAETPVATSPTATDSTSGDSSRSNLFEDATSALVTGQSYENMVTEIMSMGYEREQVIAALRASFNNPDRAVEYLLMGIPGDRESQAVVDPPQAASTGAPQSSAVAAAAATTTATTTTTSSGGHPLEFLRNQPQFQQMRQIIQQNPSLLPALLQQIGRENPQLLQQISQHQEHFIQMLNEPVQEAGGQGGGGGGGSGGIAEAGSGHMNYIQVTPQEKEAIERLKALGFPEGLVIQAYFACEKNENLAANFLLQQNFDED
# Results are given in words; binding and its absence hold for the method and conditions named. In cells and extracts the contact can be indirect. These calls come from enrichment with a bait or labelling near it, and not all partners need be listed. Where a sequence is shown, tags or fusion partners need not be part of it.
# Target: 3x-Flag-tagged DNA2 (human) (UniProt P51530)
# Test: affinity purification with mass spectrometry; 3x-Flag-DNA2 from transfected 293T extracts held on anti-Flag M2 magnetic beads overnight; IP buffer 50 mM HEPES-KOH pH 7.4, 150 mM NaCl, 0.1% NP40, 10% glycerol; one wash with 500 mM NaCl; eluted with 3x-Flag peptide; gel bands digested, LC/MS; enrichment relative to the empty vector control
row,Substance,binding
1,DNA-PK (from UniProt P78527 1-4128) (enzyme),binds
2,PARP1 (from UniProt P09874 1-1014) (enzyme),binds
3,PCNA (from UniProt P12004 1-261),binds
4,RAD23A (from UniProt P54725 1-363),binds
5,RAD23B (from UniProt P54727 1-409),binds
